Test results reported in US8394969B2, “Cyclic benzimidazole derivatives useful as anti-diabetic agents” (Merck Sharp & Dohme Corp., priority 2008, dated 2013).
Counter-ions that a name gives are not always drawn. Some entries share one result that the patent states for a list of compounds.

By UniProt entry, the sequences of proteins in these tests, tags left out. Where a name states a change or a piece, a line headed by the entry shows the natural chain unless it says otherwise.
UniProt Q13131: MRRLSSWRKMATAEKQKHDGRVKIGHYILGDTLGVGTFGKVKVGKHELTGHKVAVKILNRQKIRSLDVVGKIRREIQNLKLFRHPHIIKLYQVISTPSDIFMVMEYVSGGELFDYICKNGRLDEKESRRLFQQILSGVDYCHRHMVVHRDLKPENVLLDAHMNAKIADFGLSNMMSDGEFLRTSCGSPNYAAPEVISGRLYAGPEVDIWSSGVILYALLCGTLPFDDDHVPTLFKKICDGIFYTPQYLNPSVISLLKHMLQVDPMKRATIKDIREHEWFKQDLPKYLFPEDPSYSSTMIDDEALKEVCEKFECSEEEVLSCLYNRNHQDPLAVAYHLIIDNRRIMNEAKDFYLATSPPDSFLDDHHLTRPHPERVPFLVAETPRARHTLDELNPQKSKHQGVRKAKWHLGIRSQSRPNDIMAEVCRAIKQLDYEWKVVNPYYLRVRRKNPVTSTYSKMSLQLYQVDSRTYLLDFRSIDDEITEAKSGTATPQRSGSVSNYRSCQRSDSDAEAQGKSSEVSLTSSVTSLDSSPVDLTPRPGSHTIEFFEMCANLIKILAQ
UniProt Q9Y478: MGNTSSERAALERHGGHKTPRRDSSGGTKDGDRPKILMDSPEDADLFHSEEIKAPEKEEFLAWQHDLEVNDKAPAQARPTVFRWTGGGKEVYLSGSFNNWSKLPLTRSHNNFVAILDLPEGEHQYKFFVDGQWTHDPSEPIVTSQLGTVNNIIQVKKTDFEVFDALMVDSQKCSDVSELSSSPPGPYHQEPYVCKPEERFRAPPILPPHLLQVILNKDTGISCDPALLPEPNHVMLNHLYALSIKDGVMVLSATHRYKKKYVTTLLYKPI

Molecular target: recombinant human AMPK complex 1 (containing α1β1γ1) (Homo sapiens, UniProt Q13131+Q9Y478)
Assay: […] (in vitro AMPK activation assay)
Type: biochemical
Details: recombinant human AMPK complex 1 (α1β1γ1)

| SMILES | EC50 [µM] | % Maximum AMP Activation of human AMPK Complex 1 (basal activity subtracted) |
| --- | --- | --- |
| Cc1ccc(Oc2nc3cc(-c4cccc(-c5ccccc5)c4)c(Cl)cc3[nH]2)cc1C(=O)O [Example 302, 5-(5-Biphenyl-3-yl-6-chloro-1H-benzoimidazol-2-yloxy)-2-methyl-benzoic acid] | < 10 |  |
| Cc1ccc(Oc2nc3cc(-c4ccc(-c5ccccc5)c(C)c4)c(Cl)cc3[nH]2)cc1C(=O)O [Example 303, 5-[6-Chloro-5-(2-methyl-biphenyl-4-yl)-1H-benzoimidazol-2-yloxy]-2-methyl-benzoic acid] | < 10 |  |
| Cc1ccc(Oc2nc3cc(-c4ccc5c(c4)CC(=O)N5C)c(Cl)cc3[nH]2)cc1C(=O)O [Example 304, 5-[6-Chloro-5-(1-methyl-2-oxo-2,3-dihydro-1H-indol-5-yl)-1H-benzoimidazol-2-yloxy]-2-methyl-benzoic acid] | < 10 |  |
| Cc1ccc(Oc2nc3cc(-c4ccc5c(c4)CNC5=O)c(Cl)cc3[nH]2)cc1C(=O)O [Example 305, 5-[6-Chloro-5-(1-oxo-2,3-dihydro-1H-isoindol-5-yl)-1H-benzoimidazol-2-yloxy]-2-methyl-benzoic acid] | < 10 |  |
| CC(=O)N1CCc2cc(-c3cc4nc(Oc5ccc(C)c(C(=O)O)c5)[nH]c4cc3Cl)ccc21 [Example 306, 5-[5-(1-Acetyl-2,3-dihydro-1H-indol-5-yl)-6-chloro-1H-benzoimidazol-2-yloxy]-2-methyl-benzoic acid] | < 10 |  |
| Cc1ccc(Oc2nc3cc(-c4ccc5c(c4)CC(=O)N5)c(Cl)cc3[nH]2)cc1C(=O)O [Example 307, 5-[6-Chloro-5-(2-oxo-2,3-dihydro-1H-indol-5-yl)-1H-benzoimidazol-2-yloxy]-2-methyl-benzoic acid] | < 10 |  |
| Cc1ccc(Oc2nc3cc(-c4ccc5c(c4)OC(F)(F)O5)c(Cl)cc3[nH]2)cc1C(=O)O [Example 308, 5-[6-Chloro-5-(2,2-difluoro-benzo[1,3]dioxol-5-yl)-1H-benzoimidazol-2-yloxy]-2-methyl-benzoic acid] | < 10 |  |
| COc1ccc2cc(-c3cc4nc(Oc5ccc(Cl)c(C(=O)O)c5)[nH]c4cc3Cl)ccc2c1 [Example 309, 2-Chloro-5-[6-chloro-5-(6-methoxy-naphthalen-2-yl)-1H-benzoimidazol-2-yloxy]-benzoic acid] | < 10 |  |
| COc1ccc2cc(-c3cc4nc(Oc5cc(C)c(C)c(C(=O)O)c5)[nH]c4cc3Cl)ccc2c1 [Example 310, 5-[6-Chloro-5-(6-methoxy-naphthalen-2-yl)-1H-benzoimidazol-2-yloxy]-2,3-dimethyl-benzoic acid] | < 10 |  |
| Cc1cc(Oc2nc3cc(-c4ccc5c(ccn5C)c4)c(Cl)cc3[nH]2)cc(C(=O)O)c1C [Example 311, 5-[6-Chloro-5-(1-methyl-1H-indol-5-yl)-1H-benzoimidazol-2-yloxy]-2,3-dimethyl-benzoic acid] | < 10 |  |
| Cc1cc(Oc2nc3cc(-c4ccc5c(c4)OCCN5C)c(Cl)cc3[nH]2)cc(C(=O)O)c1C [Example 312, 5-[6-Chloro-5-(4-methyl-3,4-dihydro-2H-benzo[1,4]oxazin-7-yl)-1H-benzoimidazol-2-yloxy]-2,3-dimethyl-benzoic acid] | < 10 |  |
| Cc1cc(Oc2nc3cc(-c4ccc(-c5ccc(O)nc5)cc4)c(Cl)cc3[nH]2)cc(C(=O)O)c1C [Example 313, 5-{6-Chloro-5-[4-(6-hydroxy-pyridin-3-yl)-phenyl]-1H-benzoimidazol-2-yloxy}-2,3-dimethyl-benzoic acid] | < 10 |  |
| COC(=O)c1cc(Oc2nc3cc(-c4ccc(-c5ccc(OC)nc5)cc4)c(Cl)cc3[nH]2)cc(C)c1C [Example 314, 5-{6-Chloro-5-[4-(6-methoxy-pyridin-3-yl)-phenyl]-1H-benzoimidazol-2-yloxy}-2,3-dimethyl-benzoic acid methyl ester] | < 10 |  |
| COc1ccc(-c2ccc(-c3cc4nc(Oc5cc(C)c(C)c(C(=O)O)c5)[nH]c4cc3Cl)cc2)cn1 [Example 315, 5-{6-Chloro-5-[4-(6-methoxy-pyridin-3-yl)-phenyl]-1H-benzoimidazol-2-yloxy}-2,3-dimethyl-benzoic acid] | < 10 |  |
| Cc1cc(Oc2nc3cc(-c4ccc(C(C)(C)O)cc4)c(Cl)cc3[nH]2)cc(C(=O)O)c1C [Example 316, 5-{6-Chloro-5-[4-(1-hydroxy-1-methyl-ethyl)-phenyl]-1H-benzoimidazol-2-yloxy}-2,3-dimethyl-benzoic acid] | < 10 |  |
| CC(=O)c1ccc(-c2cc3nc(Oc4cc(C)c(C)c(C(=O)O)c4)[nH]c3cc2Cl)cc1 [Example 317, 5-[5-(4-Acetyl-phenyl)-6-chloro-1H-benzoimidazol-2-yloxy]-2,3-dimethyl-benzoic acid] | < 10 |  |
| Cc1ccc(Oc2nc3cc(-c4ccc(N(C)C)cc4)c(Cl)cc3[nH]2)cc1C(=O)O [Example 318, 2-(3-carboxy-4-methylphenoxy)-6-chloro-5-[4-(dimethylamino)phen-yl]-1H-benzimidazol-3-ium chloride] | < 10 |  |
| Cc1ccc(Oc2nc3cc(-c4ccc5c(c4)CCN5CCO)c(Cl)cc3[nH]2)cc1C(=O)O [Example 319, 5-({6-chloro-5-[1-(2-hydroxyethyl)-2,3-dihydro-1H-indol-5-yl]-1 H-benzimidazol-2-yl}oxy)-2-methylbenzoic acid] | < 10 |  |

| SMILES | EC50 [µM] | % Maximum AMP Activation of human AMPK Complex 1 (basal activity subtracted) |
| --- | --- | --- |
| Cc1ccc(Oc2nc3cc(-c4cccc5c4CCN5C(C)C)c(Cl)cc3[nH]2)cc1C(=O)O [Example 324, 5-{[6-chloro-5-(1-isopropyl-2,3-dihydro-1H-indol-4-yl)-1H-benzimidazol-2-yl]oxy}-2-methylbenzoic acid] | < 10 |  |
| Cc1ccc(Oc2nc3cc(-c4cc5ccn(CCO)c5cc4F)c(Cl)cc3[nH]2)cc1C(=O)O [Example 325, 5-({6-chloro-5-[6-fluoro-1-(2-hydroxyethyl)-1H-indol-5-yl]-1H-benzimidazol-2-yl}oxy)-2-methylbenzoic acid] | < 10 |  |
| COc1ccc(-c2cc3nc(Oc4ccc(C)c(C(=O)O)c4)[nH]c3cc2Cl)c(F)c1 [Example 326, 5-{[6-chloro-5-(2-fluoro-4-methoxyphenyl)-1H-benzimidazol-2-yl]oxy}-2-methylbenzoic acid] | < 10 |  |
| Cc1cc(-c2cc3nc(Oc4ccc(C)c(C(=O)O)c4)[nH]c3cc2Cl)ccc1F [Example 328, Ammonium 5-{[6-chloro-5-(4-fluoro-3-methylphenyl-1H-benzimidazol-2-yl]oxy}-2-methylbenzoate] | < 10 |  |
| Cc1ccc(Oc2nc3cc(-c4ccccc4C(C)C)c(Cl)cc3[nH]2)cc1C(=O)O [Example 329, Ammonium 5-{[6-chloro-5-(2-isopropylphenyl)-1H-benzimidazol-2-yl]oxy}-2-methylbenzoate] | < 10 |  |
| Cc1ccc(Oc2nc3cc(-c4ccc(CO)cc4)c(Cl)cc3[nH]2)cc1C(=O)O [Example 330, 2-(3-carboxy-4-methylphenoxy)-6-chloro-5-[4-(hydroxymethyl)phenyl]-1H-3,1-benzimidazol-3-ium trifluoroacetate] | < 10 |  |
| Cc1ccc(Oc2nc3cc(-c4ccc([S+](C)[O-])cc4)c(Cl)cc3[nH]2)cc1C(=O)O (stereo not drawn) [Example 331, 2-(3-carboxy-4-methylphenoxy)-6-chloro-5-[4-(methylsulfinyl)phenyl]-1H-3,1-benzimidazol-3-ium formate] | < 10 |  |
| Cc1ccc(Oc2nc3cc(-c4cccc(CO)n4)c(Cl)cc3[nH]2)cc1C(=O)O [Example 332, 2-(3-carboxy-4-methylphenoxy)-6-chloro-5-[6-(hydroxymethyl)pyridin-2-yl]-1H-3,1-benzimidazol-3-ium formate] | < 10 |  |
| Cc1ccc(Oc2nc3cc(-c4cccc5ncccc45)c(Cl)cc3[nH]2)cc1C(=O)O [Example 333, 2-(3-carboxy-4-methylphenoxy)-6-chloro-5-quinolin-5-yl-1H-3,1-benzimidazol-3-ium formate] | < 10 |  |
| COc1cccc(-c2cc3nc(Oc4ccc(C)c(C(=O)O)c4)[nH]c3cc2Cl)n1 [Example 334, 2-(3-carboxy-4-methylphenoxy)-6-chloro-5-(6-methoxypyridin-2-yl)-1H-3,1-benzimidazol-3-ium formate] | < 10 |  |
| Cc1ccnc(-c2cc3nc(Oc4ccc(C)c(C(=O)O)c4)[nH]c3cc2Cl)c1 [Example 335, 2-(3-carboxy-4-methylphenoxy)-6-chloro-5-(4-methylpyridin-2-yl)-1H-3,1-benzimidazol-3-ium formate] | < 10 |  |
| Cc1ccc(Oc2nc3cc(-c4cncc5ccccc45)c(Cl)cc3[nH]2)cc1C(=O)O [Example 336, 2-(3-carboxy-4-methylphenoxy)-6-chloro-5-isoquinolin-4-yl-1H-3,1-benzimidazol-3-ium formate] | < 10 |  |
| Cc1ccc(Oc2nc3cc(-c4ccc(C(F)(F)F)cc4)c(Cl)cc3[nH]2)cc1C(=O)O [Example 337, Ammonium 5-({6-chloro-5-[4-(trifluoromethyl)phen-yl]-1H-benzimidazol-2-yl}oxy)-2-methylbenzoate] | < 10 |  |
| COc1cccc(-c2cc3nc(Oc4ccc(C)c(C(=O)O)c4)[nH]c3cc2Cl)c1 [Example 338, Ammonium 5-{[6-chloro-5-(3-methoxyphenyl)-1H-benzimidazol-2-yl]oxy}-2-methylbenzoate] | < 10 |  |
| Cc1ccc(Oc2nc3cc(-c4cccc(C(C)C)c4)c(Cl)cc3[nH]2)cc1C(=O)O [Example 339, Ammonium 5-{[6-chloro-5-(3-isopropylphenyl)-1H-benzimidazol-2-yl]oxy}-2-methylbenzoate] | < 10 |  |
| Cc1ccc(-c2cc3nc(Oc4ccc(C)c(C(=O)O)c4)[nH]c3cc2Cl)cc1C [Example 340, Ammonium 5-{[6-chloro-5-(3,4-dimethylphenyl)-1H-benzimidazol-2-yl]oxy}-2-methylbenzoate] | < 10 |  |
| COc1ccc(-c2cc3nc(Oc4ccc(C)c(C(=O)O)c4)[nH]c3cc2Cl)c(F)c1.O=C(O)C(F)(F)F [Example 341, 2-(3-carboxy-4-methylphenoxy)-6-chloro-5-(2-fluoro-4-methoxyphenyl)-1H-3,1-benzimidazol-3-ium trifluoroacetate] |  | greater than 80% |
| CSc1ccc(-c2cc3nc(Oc4ccc(C)c(C(=O)O)c4)[nH]c3cc2Cl)cc1 [Example 343, Ammonium 5-({6-chloro-5-[4-(methylthio)phenyl]-1H-benzimidazol-2-yl}oxy)-2-methylbenzoate] | < 10 |  |
